Experimental data taken from the supplement of paper PMC11006884.
This is a selection; strong and weak results do not stand in their true shares.

Compound: COC(=O)C#Cc1ccccc1 [methyl 3-phenylpropiolate]
Assay: log2 ratio of iodoacetamide-alkyne labeling of the cysteine site, DMSO over compound (competition); higher = stronger covalent engagement of the cysteine by the compound, active = 1 or more
Details: 500 µM; treatment time 1 h; system: HEK293T cell lysate
Outline: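 For each cysteine, the log2 competition ratio is mean control-channel reporter intensity over mean compound-channel reporter intensity. HEK293T lysate (2 mg/mL) was exposed to vehicle or electrophile (500 µM, 1 h, ambient temperature), labelled with iodoacetamide alkyne (1 h), clicked to sCIP-TMT reagents, digested overnight with trypsin at 37 °C, streptavidin-enriched and analysed by Orbitrap Eclipse LC-MS/MS with FAIMS and FragPipe. Cysteines quantified in only one of three replicates, each with duplicate channels, were excluded.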

| Target | log2 ratio of iodoacetamide-alkyne labeling |
| --- | --- |
| HNRNPA0 C7 (UniProt Q13151) | inactive: 0.00321 |
| PTPN13 C937 (UniProt Q12923) | inactive: 0.773 |
| PRDX1 C83 (UniProt Q06830) | inactive: 0.229 |
| TJP1 C1727 (UniProt Q07157) | inactive: 0.0718 |
| EP300 C1163 (UniProt Q09472) | inactive: 0.615 |
| MTA1 C68 (UniProt Q13330) | inactive: 0.278 |
| PSME1 C22 (UniProt Q06323) | inactive: 0.8 |
| SF3A3 C103 (UniProt Q12874) | inactive: 0.188 |
| PTPN13 C2229 (UniProt Q12923) | inactive: -0.0355 |
| EIF4G1 C1265 (UniProt Q04637) | inactive: 0.0211 |
| GTF3C1 C1188 (UniProt Q12789) | inactive: 0.302 |
| EIF3I C160 (UniProt Q13347) | inactive: 0.0316 |
| COASY C144 (UniProt Q13057) | active: 1.16 |
| CSTF3 C646 (UniProt Q12996) | inactive: 0.187 |
| UBE3A C843 (UniProt Q05086) | inactive: 0.347 |
| PLOD1 C267 (UniProt Q02809) | inactive: 0.27 |
| MTA1 C512 (UniProt Q13330) | inactive: 0.481 |
| UniProt Q07955_C16 | inactive: -0.0793 |
| DST C4370 (UniProt Q03001) | inactive: 0.151 |
| CHAF1A C465 (UniProt Q13111) | inactive: 0.368 |
| MTA1 C229 (UniProt Q13330) | inactive: 0.124 |
| CBX3 C177 (UniProt Q13185) | inactive: 0.396 |

Laid out differently: entries from further up.
Target,log2 ratio of iodoacetamide-alkyne labeling
EIF3I C160 (UniProt Q13347),inactive: 0.0316
COASY C144 (UniProt Q13057),active: 1.16
CSTF3 C646 (UniProt Q12996),inactive: 0.187
UBE3A C843 (UniProt Q05086),inactive: 0.347
PLOD1 C267 (UniProt Q02809),inactive: 0.27
MTA1 C512 (UniProt Q13330),inactive: 0.481
